Source: paper doi:10.1101/551317
Where two headings read alike, the source gives them in different places. Results are given in words; binding and its absence hold for the method and conditions named. For some assays here: Binding calls can cover weak binding; strength is not graded here. For some assays here: Sequences can lack the tags named with a protein. For some assays here: In cells and extracts the contact can be indirect. Each block holds one binder with its values, some of them ahead of it.

Sequences of proteins named here, by UniProt entry; tags and fusion partners are left off. A change or cut given only in a name is not applied to a line headed by its entry.
UniProt B6EUB3: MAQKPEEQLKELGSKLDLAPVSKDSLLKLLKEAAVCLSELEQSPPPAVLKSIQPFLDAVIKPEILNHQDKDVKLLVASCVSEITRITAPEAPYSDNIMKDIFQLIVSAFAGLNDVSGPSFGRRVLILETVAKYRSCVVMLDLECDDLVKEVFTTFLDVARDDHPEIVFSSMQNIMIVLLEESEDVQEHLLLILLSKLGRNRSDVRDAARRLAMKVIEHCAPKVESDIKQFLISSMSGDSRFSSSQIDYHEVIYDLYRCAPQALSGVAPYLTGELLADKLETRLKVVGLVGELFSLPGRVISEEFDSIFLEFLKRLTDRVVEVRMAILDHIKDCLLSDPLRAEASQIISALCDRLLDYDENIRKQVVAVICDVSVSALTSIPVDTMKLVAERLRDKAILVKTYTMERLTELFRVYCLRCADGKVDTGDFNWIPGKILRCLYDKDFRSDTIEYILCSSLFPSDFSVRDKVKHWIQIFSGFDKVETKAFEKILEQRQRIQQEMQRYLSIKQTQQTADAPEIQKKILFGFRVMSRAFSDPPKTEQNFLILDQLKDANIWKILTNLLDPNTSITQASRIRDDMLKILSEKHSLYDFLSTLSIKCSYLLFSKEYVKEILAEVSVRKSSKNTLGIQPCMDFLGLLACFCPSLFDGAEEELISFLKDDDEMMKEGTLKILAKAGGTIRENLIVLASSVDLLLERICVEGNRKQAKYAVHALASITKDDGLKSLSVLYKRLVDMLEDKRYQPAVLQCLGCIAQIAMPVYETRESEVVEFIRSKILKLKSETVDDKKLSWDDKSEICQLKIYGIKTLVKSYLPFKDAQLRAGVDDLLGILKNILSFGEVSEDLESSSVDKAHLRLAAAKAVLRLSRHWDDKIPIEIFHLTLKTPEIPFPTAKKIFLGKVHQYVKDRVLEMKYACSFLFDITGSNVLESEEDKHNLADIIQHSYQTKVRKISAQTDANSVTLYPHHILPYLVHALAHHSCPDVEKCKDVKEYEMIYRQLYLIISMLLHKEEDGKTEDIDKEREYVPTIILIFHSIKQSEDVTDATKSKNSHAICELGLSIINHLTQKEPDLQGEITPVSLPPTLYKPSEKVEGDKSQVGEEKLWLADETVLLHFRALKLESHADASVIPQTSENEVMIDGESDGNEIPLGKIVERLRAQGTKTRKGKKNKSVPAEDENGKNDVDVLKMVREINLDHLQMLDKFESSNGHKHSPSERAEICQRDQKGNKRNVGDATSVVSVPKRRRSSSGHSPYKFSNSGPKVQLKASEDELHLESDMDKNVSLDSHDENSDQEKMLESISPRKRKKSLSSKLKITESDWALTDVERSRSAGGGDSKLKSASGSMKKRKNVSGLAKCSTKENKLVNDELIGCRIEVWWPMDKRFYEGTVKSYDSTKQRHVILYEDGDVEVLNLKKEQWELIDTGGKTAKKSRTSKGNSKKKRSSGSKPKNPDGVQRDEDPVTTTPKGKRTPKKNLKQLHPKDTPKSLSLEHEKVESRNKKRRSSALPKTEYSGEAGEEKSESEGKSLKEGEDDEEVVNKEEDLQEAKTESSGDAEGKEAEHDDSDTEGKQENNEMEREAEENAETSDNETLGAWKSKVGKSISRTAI

Columns and labels:
[1] = target: HisGST-PDS5A 1-809 (Arabidopsis thaliana); assay: pull-down
[2] = target: HisGST-PDS5A 1-809 (Arabidopsis thaliana); assay: pull-down; remark: listed apart in the source
[3] = target: PDS5A 1-809, yeast two-hybrid fusion (Arabidopsis thaliana); assay: two-hybrid
[4] = target: PDS5A 810-1607, yeast two-hybrid fusion (Arabidopsis thaliana) (UniProt B6EUB3); assay: two-hybrid
[5] = target: PDS5A, BiFC fusion (Arabidopsis thaliana) (UniProt B6EUB3); assay: split reporter

B1: HisMBP-SWI1 1-300 (domain or fragment, UniProt Q9FGN8 1-300)
chain: MSSTMFVKRNPIRETTAGKISSPSSPTLNVAVAHIRAGSYYEIDASILPQRSPENLKSIRVVMVSKITASDVSLRYPSMFSLRSHFDYSRMNRNKPMKKRSGGGLLPVFDESHVMASELAGDLLYRRIAPHELSMNRNSWGFWVSSSSRRNKFPRREVVSQPAYNTRLCRAASPEGKCSSELKSGGMIKWGRRLRVQYQSRHIDTRKNKEGEESSRVKDEVYKEEEMEKEEDDDDGNEIGGTKQEAKEITNGNRKRKLIESSTERLAQKAKVYDQKKETQIVVYKRKSERKFIDRWSVER
binding [1]: binds
binding [2]: binds

B2: SWI1 1-300, yeast two-hybrid fusion (domain or fragment, UniProt Q9FGN8 1-300)
chain: B1 chain
binding [3]: binds

B6: HisMBP-WAPL1 (protein, UniProt F4I7C7 1-930)
chain: MIIVKLTANRICCSLLQLRRSYEHFYIFVFLPEIPLFRFSHLKLFPKNLQIQRLVSAMMERTYGRRKPGIPRTLSDSLNDSVSQTEYLSSSSSPDIEPIDYSLLPFSSQESSSLWHSSSRSNFREDYPQNGGVVRRAKRVRNGAEAAAFTSTLLEAQEFGELMEHEDEVNFALDGLRKGHQLRIRRASLSSLLSICASQHQRRSLRAQGISQSIIDAILVLSLDDIPSNLAAATLFFALTADGQDEHFMESPKCIKFLIKLLKPVIVTSTEGKPRNIGFKLLSLLKDVDAARDPVKMDDPSSSDILSRVQELLVNCKEMRLNDSYITETTRPELSTKWVALLAMERACVSKISFDDTSGSVKKTGGNFKEKLRELGGLDAVLEVVMDCHAVMERWVEYDALSVQEKKDNLHKQSLMLLLKCLKIMENATFLSTDNQNHLLGFKKCLGSHDSRMSFTELTISVIKMLSGLHLRGGFSSPNTNNVNSHYSNGGNHDSVLEANRKVTNEVVTISSDTYSTVGSISTRNGSVSQRSQSIIHLDFSPTSMSGSQSSVSGNEPTTSKTRVGSTISGSFAGRLASLGSDIARTTLRTTQAGEPICKKFGEFAPPEESEDPFAFDLEDYKPSKWAVVSVNQKKSRAQKKKGCYKQSKDESLYQLFSSQEESSNHRLNSQEESSNRDCSTSLQPSHCTNDIDEECLCLLFDCLLTAVKVLMNLTNDNVVGCRQVGGCRGLESMAELIARHFPSFTRSQLFSEMEKTGSSHQKKDKYLTDQELDFLVAILGLLVNLVERDGVNRSRLASASVPITKPEELQESEQEMIPLLCSIFLTNQGSAETKEETTTFTLDDEEAVLEGEKEAEKMIVEAYSALLLAFLSTESRSIRNSIKDYLPKRNLAILVPVLERFVAFHMTLNMIPPETHKAVMGVIESCKSP
binding [1]: binds
binding [2]: binds

Further lines, results first:

binding [3]: no binding
B3: SWI1 301-639, yeast two-hybrid fusion (domain or fragment, UniProt Q9FGN8 301-639)
chain: YKLAERNMLKVMKEKNAVFGNSILRPELRSEARKLIGDTGLLDHLLKHMAGKVAPGGQDRFMRKHNADGAMEYWLESSDLIHIRKEAGVKDPYWTPPPGWKLGDNPSQDPVCAGEIRDIREELASLKRELKKLASKKEEEELVIMTTPNSCVTSQNDNLMTPAKEIYADLLKKKYKIEDQLVIIGETLRKMEEDMGWLKKTVDENYPKKPDSTETPLLLEDSPPIQTLEGEVKVVNKGNQITESPQNREKGRKHDQQERSPLSLISNTGFRICRPVGMFAWPQLPALAAATDTNASSPSHRQAYPSPFPVKPLAAKRPLGLTFPFTIIPEEAPKNLFNV

binding [3]: binds
binding [4]: no binding
B4: SWITCH 1/DYAD (SWI1), yeast two-hybrid fusion (protein, UniProt Q9FGN8 1-639)
chain: MSSTMFVKRNPIRETTAGKISSPSSPTLNVAVAHIRAGSYYEIDASILPQRSPENLKSIRVVMVSKITASDVSLRYPSMFSLRSHFDYSRMNRNKPMKKRSGGGLLPVFDESHVMASELAGDLLYRRIAPHELSMNRNSWGFWVSSSSRRNKFPRREVVSQPAYNTRLCRAASPEGKCSSELKSGGMIKWGRRLRVQYQSRHIDTRKNKEGEESSRVKDEVYKEEEMEKEEDDDDGNEIGGTKQEAKEITNGNRKRKLIESSTERLAQKAKVYDQKKETQIVVYKRKSERKFIDRWSVERYKLAERNMLKVMKEKNAVFGNSILRPELRSEARKLIGDTGLLDHLLKHMAGKVAPGGQDRFMRKHNADGAMEYWLESSDLIHIRKEAGVKDPYWTPPPGWKLGDNPSQDPVCAGEIRDIREELASLKRELKKLASKKEEEELVIMTTPNSCVTSQNDNLMTPAKEIYADLLKKKYKIEDQLVIIGETLRKMEEDMGWLKKTVDENYPKKPDSTETPLLLEDSPPIQTLEGEVKVVNKGNQITESPQNREKGRKHDQQERSPLSLISNTGFRICRPVGMFAWPQLPALAAATDTNASSPSHRQAYPSPFPVKPLAAKRPLGLTFPFTIIPEEAPKNLFNV

binding [5]: binds
B5: SWI1-mTurquiose2 (protein, UniProt Q9FGN8 1-639)
chain: B4 chain

binding [3]: binds
binding [4]: no binding
B7: WINGS APART-LIKE 1 (WAPL1), yeast two-hybrid fusion (protein, UniProt F4I7C7 1-930)
chain: B6 chain
